Article PMC9148403, “1,3,5-triazines inhibit osteosarcoma and avert lung metastasis in a patient-derived orthotopic xenograft mouse model with favorable pharmacokinetics” (Iranian Journal of Basic Medical Sciences, 2022)

What was measured:
[1] = test system: K562; assay: Cellular antiproliferation assay (CCK-8), K562; format: cell-based; conditions: Homo sapiens, K562 cells, read-out: Cell growth inhibition IC50 K562
[2] = target: PI3K; assay: PI3K luminescent kinase assay (Promega); format: biochemical; conditions: read-out: Kinase inhibition IC50 PI3K
Source text: PI3K and mTOR kinase inhibition assay
The inhibitory activity of developed molecules against PI3K and mTOR was identified using luminescent kinase assay, and Lance Ultra assay from Promega, USA, respectively as per our earlier reported procedure ([38]).

[3] = test system: Saos-2; assay: Cellular antiproliferation assay (CCK-8), Saos-2; format: cell-based; conditions: Homo sapiens, Saos-2 cells, read-out: Cell growth inhibition IC50 Saos-2
Description: The human osteosarcoma cancer cell lines MG-63, U2-OS, and Saos-2 were purchased from CBSIBCB of the Chinese Academy of Sciences (Shanghai, China)
Cellular antiproliferation assay using cell counting kit (CCK-8)
The CCK-8 assay was used in the current study to analyze the effect of compounds on cellular proliferation. The transfected cells were seeded in a 96-well plate, and to this CCK-8 (20 µl) was added. The enzyme microplate reader at 450 nm was used to record the absorbance. The inhibitory effect on cellular proliferation was obtained as per the given formula: Inhibitory activity (%) = (1 - Atest/Acontrol) × 100 %.

[4] = test system: KU812; assay: Cellular antiproliferation assay (CCK-8), KU812; format: cell-based; conditions: Homo sapiens, KU812 cells, read-out: Cell growth inhibition IC50 KU812

Cc1ccc(NC(=O)c2ccc(CN3CCN(C)CC3)cc2)cc1Nc1nccc(-c2cccnc2)n1 [Imatinib, reference compound]
IC50 [1]: 410 nM
IC50 [2]: 312 nM
IC50 [3]: 332 nM
IC50 [4]: 165 nM
